Some entries share one result that the patent states for a list of compounds.
biological target: MC4-R (Homo sapiens, UniProt P32245); experiment: cAMP Scintillation Proximity Assay in cells expressing MC4-R; type: cell-based; conditions: intercellular cAMP measured by SPA kit

Protein sequences, listed by entry. Tags and fused reporters are not part of them.
UniProt P32245, whole entry, species assumed: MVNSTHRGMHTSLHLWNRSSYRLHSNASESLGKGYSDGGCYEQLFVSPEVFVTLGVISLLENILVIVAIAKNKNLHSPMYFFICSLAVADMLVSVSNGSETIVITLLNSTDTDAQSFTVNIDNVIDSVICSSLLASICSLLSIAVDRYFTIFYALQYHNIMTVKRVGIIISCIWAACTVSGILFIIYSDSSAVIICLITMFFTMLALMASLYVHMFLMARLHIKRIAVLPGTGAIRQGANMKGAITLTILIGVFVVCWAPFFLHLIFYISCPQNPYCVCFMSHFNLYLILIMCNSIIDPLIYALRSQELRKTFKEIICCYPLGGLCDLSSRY

Row | SMILES | −log EC50
1 | COc1cc2c(cc1OC)C(c1ccc(NC(=N[C@H]3C[C@H]4C[C@@H]([C@@H]3C)C4(C)C)N3CCN[C@@H](C)C3)cc1)=NCC2 [Example 28, (3S)-N-{4-[6,7-bis(methyloxy)-3,4-dihydroisoquinolin-1-yl]phenyl}-3-methyl-N′-[(1S,2S,3S,5R)-2,6,6-trimethylbicyclo[3.1.1]hept-3-yl]piperazine-1-carboximidamide] | above 3
2 | COc1ccc2c(c1)CCN=C2c1ccc(NC(=N[C@@H]2C[C@H]3C[C@@H]([C@@H]2C)C3(C)C)N2CCN[C@@H](C)C2)cc1 [Example 29, (3S)-3-methyl-N-{4-[6-(methyloxy)-3,4-dihydroisoquinolin-1-yl]phenyl}-N′-[(1S,2S,3R,5R)-2,6,6-trimethylbicyclo[3.1.1]hept-3-yl]piperazine-1-carboximidamide] | above 3
3 | COc1ccc2c(c1)C(c1ccc(NC(=N[C@@H]3CC4C[C@@H]([C@@H]3C)C4(C)C)N3CCN[C@@H](C)C3)cc1)N(C)CC2 (stereo partly drawn) [Example 30, (3S)-3-methyl-N-{4-[2-methyl-7-(methyloxy)-1,2,3,4-tetrahydroisoquinolin-1-yl]phenyl}-N′-[(1S,2S,3R)-2,6,6-trimethylbicyclo[3.1.1]hept-3-yl]piperazine-1-carboximidamide] | above 3
4 | CC1CN(C(=NC2CC3CC(C2C)C3(C)C)Nc2ccc(C3=NCCc4ccc5ccccc5c43)cc2)CCN1 [Example 31, (3S)-N-[4-(3,4-dihydrobenzo[h]isoquinolin-1-yl)phenyl]-3-methyl-N′-[(1S,2S,3R)-2,6,6-trimethylbicyclo[3.1.1]jept-3-yl]piperazine-1-carboximidamide] | above 3
5 | CC(C)Oc1ccc2c(c1)C(c1ccc(NC(=N[C@@H]3C[C@H]4C[C@@H]([C@@H]3C)C4(C)C)N3CCN[C@@H](C)C3)cc1)=NCC2 [Example 32, (3S)-3-methyl-N-(4-{7-[(1-methylethyl)oxy]-3,4-dihydroisoquinolin-1-yl}phenyl)-N′-[(1S,2S,3R,5R)-2,6,6-trimethylbicyclo[3.1.1]hept-3-yl]piperazine-1-carboximidamide] | above 3
6 | COc1ccc2ccnc(-c3ccc(NC(=NC4CC5CC(C4C)C5(C)C)N4CCNC(C)C4)cc3)c2c1 [Example 33, (3S)-3-methyl-N-{4-[7-(methyloixy)isoquinolin-1-yl]phenyl}-N′-[(1S,2S,3R,5R)-2,6,6-trimethylbicyclo[3.1.1]hept-3-yl]piperazine-1-carboximidamide] | above 3
7 | CC1CN(C(=NC2CC3CC(C2C)C3(C)C)Nc2ccc(C3=NCCc4ccc(C(C)C)cc43)cc2)CCN1 [Example 34, (3S)-3-methyl-N-{4-[7-(1-methylethyl)-3,4-dihydroisoquinolin-1-yl]phenyl}-N′-[(1S,2S,3R,5R)-2,6,6-trimethylbicyclo[3.1.]hept-3-yl]piperazine-1-carboximidamide] | above 3
8 | CCOc1ccc2c(c1)C(c1ccc(NC(=N[C@@H]3C[C@H]4C[C@@H]([C@@H]3C)C4(C)C)N3CCN[C@@H](C)C3)cc1)=NCC2 [Example 35, (3S)-N-{4-[7-(ethyloxy)-3,4-dihydroisoquinolin-1-yl]phenyl}-3-methyl-N′-[(1S,2S,3R,5R)-2,6,6-trimethylbicyclo[3.1.1]hept-3-yl]piperazine-1-carboximidamide] | above 3
9 | COc1ccc2c(c1)C(c1ccc(NC(=N[C@@H]3C[C@H]4C[C@@H]([C@@H]3C)C4(C)C)N3CCN[C@@H](C)C3)cc1)=N[C@H](CO)C2 [Example 36, (3S)-N-{4-[(3S)-3-(hydroxymethyl)-7-(methyloxy)-3,4-dihydroisoquinolin-1-yl]phenyl}-3-methyl-N′-[(1S,2S,3R,5R)-2,6,6-trimethylbicyclo[3.1.1]hept-3-yl]piperazine-1-carboximidamide] | above 3

— patent US20030195187A1, “Guanidino compounds” (CHIRON CORPORATION, priority 2002, published 2003)
